In paper PMC5345878 one finds binding data, which are given here for eight molecules.

B1: Pre-mRNA-splicing factor 38A (protein, UniProt Q4FK66 1-312)
chain: MANRTVKDAHSIHGTNPQYLVEKIIRTRIYESKYWKEECFGLTAELVVDKAMELKFVGGVYGGNIKPTPFLCLTLKMLQIQPEKDIIVEFIKNEDFKYVRMLGALYMRLTGTAIDCYKYLEPLYNDYRKIKSQNRNGEFVLMHVDEFIYELLHSERVCDIILPRLQKRYVLEEAEQLEPRVSALEEDMDDVESSEEEEEEDEKLERVPSPDHRRRSYRDLDKPRRSPALRYRRSRSRSPRRRSRSPKRRSPSPRRERHRSKSPRRHRSRSRDRRHRSRSKSPGHHRSHRHRSHSKSPERSKKSHKKSRRGNE
B2: Tudor domain-containing protein 1 (protein, UniProt Q99MV1 1-1172)
chain: MMPRNNLEASTCKMAEPFNFEKKESKPPPQDPLRSPVAQHNHPTFRLKSPENGNTKNNFLLCEQNKQYLASQEDSSVVSSNPAVVNGEVGGSKGDRKPPPTGNPVSPLSLGNSSPPNQVKTKPSSNVTPEKSKKSHKLFENALSVNNPALFNSLGPPLRSTTCHRCGLFGSLRCSQCKQTYYCSTACQRRDWSSHSTICRPVQQSLNKLEDNKSPFETKAIEVKSEVDCPPGVTKEITAGAERVMFSDLRSLQLKKTMEIKGTVTEFKHPSNFYIQLYSSEVLENMNQLSTSLKETYANVVPEDGYLPVKGEVCVAKYTVDQTWNRAIVQAVDVLQRKAHVLYIDYGNEEMIPIDSVHPLSRGLDLFPPSAIKCCVSGVIPTAGEWSEGCVAAVKALLFEQFCSVKVMDILEEEVLTCAVDLVLQSSGKQLDHVLVEMGYGVKPGEQSSTEQSVDHSALEDVGRVTVESKIVTDRNALIPKVLTLNVGDEFCGVVAHIQTPEDFFCQQLQSGHKLAELQESLSEYCGHVIPRSDFYPTIGDVCCAQFSEDDQWYRASVLAYASEESVLVGYVDYGNFEILSLKRLCPIIPKLLDLPMQALNCVLAGVKPSLGIWTPEAVCVMKEMVQNRMVTVRVVGMLGTRALVELIDKSVAPHVSASKALIDSGFAIKEKDVADKGSSMHTASVPLAIEGPAEALEWTWVEFTVDETVDVVVCMMYSPGEFYCHFLKDDALEKLDDLNQSLADYCAQKPPNGFKAEIGRPCCAFFSGDGNWYRALVKEILPSGNVKVHFVDYGNVEEVTTDQLQAILPQFLLLPFQGMQCWLVDIQPPNKHWTKEATARFQACVVGLKLQARVVEITANGVGVELTDLSTPYPKIISDVLIREQLVLRCGSPQDSLMSRPANQHKQIDSHRVQASPSAEQWKTMELPVNKTIAANVLEIISPALFYAIPSEMSENQEKLCVLAAELLEHCNAQKGQPAYRPRTGDACCAKYTNDDFWYRAIVLETSESDVKVLYADYGNIETLPLSRVQPIPASHLELPFQIIRCSLEGPMELNGSCSQLVMELLRNAMLNQSVVLSVKAISKNVHAVSVEKCSENGMINIAENLVMCGLAENLTSKRKSASTKEIPHSRDCCCTELQKQIEKHEQILLFLLNNPTNQSKFTEMKKLLRS
B3: Splicing factor 3B subunit 1 SF3b155 (protein, UniProt Q99NB9 1-1304)
chain: MAKIAKTHEDIEAQIREIQGKKAALDEAQGVGLDSTGYYDQEIYGGSDSRFAGYVTSIAATELEDDDDDYSSSTSLLGQKKPGYHAPVALLNDIPQSTEQYDPFAEHRPPKIADREDEYKKHRRTMIISPERLDPFADGGKTPDPKMNARTYMDVMREQHLTKEEREIRQQLAEKAKAGELKVVNGAAASQPPSKRKRRWDQTADQTPGATPKKLSSWDQAETPGHTPSLRWDETPGRAKGSETPGATPGSKIWDPTPSHTPAGAATPGRGDTPGHATPGHGGATSSARKNRWDETPKTERDTPGHGSGWAETPRTDRGGDSIGETPTPGASKRKSRWDETPASQMGGSTPVLTPGKTPIGTPAMNMATPTPGHIMSMTPEQLQAWRWEREIDERNRPLSDEELDAMFPEGYKVLPPPAGYVPIRTPARKLTATPTPLGGMTGFHMQTEDRTMKSVNDQPSGNLPFLKPDDIQYFDKLLVDVDESTLSPEEQKERKIMKLLLKIKNGTPPMRKAALRQITDKAREFGAGPLFNQILPLLMSPTLEDQERHLLVKVIDRILYKLDDLVRPYVHKILVVIEPLLIDEDYYARVEGREIISNLAKAAGLATMISTMRPDIDNMDEYVRNTTARAFAVVASALGIPSLLPFLKAVCKSKKSWQARHTGIKIVQQIAILMGCAILPHLRSLVEIIEHGLVDEQQKVRTISALAIAALAEAATPYGIESFDSVLKPLWKGIRQHRGKGLAAFLKAIGYLIPLMDAEYANYYTREVMLILIREFQSPDEEMKKIVLKVVKQCCGTDGVEANYIKTEILPPFFKHFWQHRMALDRRNYRQLVDTTVELANKVGAAEIISRIVDDLKDEAEQYRKMVMETIEKIMGNLGAADIDHKLEEQLIDGILYAFQEQTTEDSVMLNGFGTVVNALGKRVKPYLPQICGTVLWRLNNKSAKVRQQAADLISRTAVVMKTCQEEKLMGHLGVVLYEYLGEEYPEVLGSILGALKAIVNVIGMHKMTPPIKDLLPRLTPILKNRHEKVQENCIDLVGRIADRGAEYVSAREWMRICFELLELLKAHKKAIRRATVNTFGYIAKAIGPHDVLATLLNNLKVQERQNRVCTTVAIAIVAETCSPFTVLPALMNEYRVPELNVQNGVLKSLSFLFEYIGEMGKDYIYAVTPLLEDALMDRDLVHRQTASAVVQHMSLGVYGFGCEDSLNHLLNYVWPNVFETSPHVIQAVMGALEGLRVAIGPCRMLQYCLQGLFHPARKVRDVYWKIYNSIYIGSQDALIAHYPRIYNDDKNTYIRYDLDYIL
B4: U5 small nuclear ribonucleoprotein 40 kDa (protein, UniProt Q6PE01 1-358)
chain: MIEQQKRKGPELPLVPVKRPRHELLLGAAGAGPGAGPQQATPGALLQAGPPRCSSLQAPIMLLSGHEGEVYCCKFHPNGSTLASAGFDRLILLWNVYGDCDNYATLKGHSGAVMELHYNTDGSMLFSASTDKTVAVWDSETGERVKRLKGHTSFVNSCYPARRGPQLVCTGSDDGTVKLWDIRKKAAVQTFQNTYQVLAVTFNDTSDQIISGGIDNDIKVWDLRQNKLTYTMRGHADSVTGLSLSSEGSYLLSNAMDNTVRVWDVRPFAPKERCVKIFQGNVHNFEKNLLRCSWSPDGSKIAAGSADRFVYVWDTTSRRVLYKLPGHAGSINEVAFHPDEPIILSASSDKRLYMGEIQ
B5: Cold-inducible RNA-binding protein (protein, UniProt P60824 1-172)
chain: MASDEGKLFVGGLSFDTNEQALEQVFSKYGQISEVVVVKDRETQRSRGFGFVTFENIDDAKDAMMAMNGKSVDGRQIRVDQAGKSSDNRSRGYRGGSAGGRGFFRGGRSRGRGFSRGGGDRGYGGGRFESRSGGYGGSRDYYASRSQGGSYGYRSSGGSYRDSYDSYATHNE
B6: Cleavage stimulation factor subunit 3 (protein, UniProt Q99LI7 1-717)
chain: MSGDAAAEQAAEYVPEKVKKAEKKLEENPYDLDAWSILIREAQNQPIDKARKTYERLVAQFPSSGRFWKLYIEAEIKAKNYDKVEKLFQRCLMKVLHIDLWKCYLSYVRETKGKLPSYKEKMAQAYDFALDKIGMEIMSYQIWVDYINFLKGVEAVGSYAENQRITAVRRVYQRGCVNPMINIEQLWRDYNKYEEGINIHLAKKMIEDRSRDYMNARRVAKEYETVMKGLDRNAPSVPPQNTPQEAQQVDMWKKYIQWEKSNPLRTEDQTLITKRVMFAYEQCLLVLGHHPDIWYEAAQYLEQSSKLLAEKGDMNNAKLFSDEAANIYERAISTLLKKNMLLYFAYADYEESRMKYEKVHSIYNRLLAIEDIDPTLVYIQYMKFARRAEGIKSGRMIFKKAREDARTRHHVYVTAALMEYYCSKDKSVAFKIFELGLKKYGDIPEYVLAYIDYLSHLNEDNNTRVLFERVLTSGSLPPEKSGEIWARFLAFESNIGDLASILKVEKRRFTAFREEYEGKETALLVDRYKFMDLYPCSASELKALGYKDVSRAKLAAIIPDPVVAPSIVPVLKDEVDRKPEYPKPDTQQMIPFQPRHLAPPGLHPVPGGVFPVPPAAVVLMKLLPPPICFQGPFVQVDELMEIFRRCKIPNTVEEAVRIITGGAPELAVEGNGPVESSAVLTKAVKRPNEDSDEDEEKGAVVPPVHDIYRARQQKRIR
B7: ATP-dependent RNA helicase DDX42 (protein, UniProt Q810A7 1-929)
chain: MNWNKGGPGTKRGFGFGGFAISAGKKEEAKLPQQSHSAFGAASSSSGFGKSAPPQLPSFYKIGSKRANFDEENAYFEDEEEDSSNVDLPYIPAENSPTRQQFHSKPADSDSDDDPLEAFMAEVEDQAARDMKRLEEKDKERKNVKGIRDDIEEEDDQEAYFRYMAENPTAGVVQEEEEDNLEYDSDGNPIAPSKKIIDPLPPIDHSEIDYPPFEKNFYNEHEEITNLTPQQLIDLRHKLNLRVSGAAPPRPGSSFAHFGFDEQLMHQIRKSEYTQPTPIQCQGVPVALSGRDMIGIAKTGSGKTAAFIWPMLIHIMDQKELEPGDGPIAVIVCPTRELCQQIHAECKRFGKAYNLRSVAVYGGGSMWEQAKALQEGAEIVVCTPGRLIDHVKKKATNLQRVSYLVFDEADRMFDMGFEYQVRSIASHVRPDRQTLLFSATFRKKIEKLARDILIDPIRVVQGDIGEANEDVTQIVEILHSGPSKWNWLTRRLVEFTSSGSVLLFVTKKANAEELASNLKQEGHNLGLLHGDMDQSERNKVISDFKKKDIPVLVATDVAARGLDIPSIKTVINYDVARDIDTHTHRIGRTGRAGEKGVAYTLLTPKDSNFAGDLVRNLEGANQHVSKELLDLAMQNAWFRKSRFKGGKGKKLNIGGGGLGYRERPGLGSENSDRGNNNNVMSNYEAYKPSTGAMGDRLTAMKAAFQSQYKSHFVAASLSNQKAGTSSAGASGWTSAGSLNSVPTNSAQQGHNSPDNPMTSSTKNIPGFNNSGNISSAPVTYPSIGAQGVNNTASGNNSREGIGGGNGKRERYTENRGGSRHSHGDGGNRHGDGGRHGDGYRYPESGSRHTDGHRHGETRHGGSAGRHGESRGANDGRNGESRKEGFNRENKMDPKVDSSRMDKVDSKTDKTPDGFAVPEPPKRKKSRWDS
B8: Deleted in azoospermia-like (protein, UniProt Q64368 1-298)
chain: MSATTSEAPNSAVSREASTQSSSATTSQGYVLPEGKIMPNTVFVGGIDVRMDETEIRSFFARYGSVKEVKIITDRTGVSKGYGFVSFYNDVDVQKIVESQINFHGKKLKLGPAIRKQNLCTYHVQPRPLIFNPPPPPQFQSVWSSPNAETYMQPPTMMNPITQYVQAYPPYPSSPVQVITGYQLPVYNYQMPPQWPAGEQRSYVIPPAYTTVNYHCSEVDPGADILPNECSVHDAAPASGNGPQKKSVDRSIQTVVSCLFNPENRLRNSLVTQDDYFKDKRVHHFRRSRAVLKSDHLC

No constants are given. Whether binding was seen depends on the method and setting. Binding seen in cells or lysates may run through a third protein. These calls come from enrichment with a bait or labelling near it, and not all partners need be listed.

In the assay the target is Histone variant H2A.B.3 (mouse). Briefly: affinity purification with mass spectrometry; formaldehyde crosslinked mononucleosomes (MNase I) from testes of 28-30 day old mice; anti-H2A.B.3 or anti-H2A.Z antibody covalently bound to Dynabeads, 4 hours at 4°C; washes with 1 M NaCl; LC-MS/MS; two replicates each; proteins common to H2A.Z and H2A.B.3 removed.
For B1, the binding result is given as “binds”.

Turning to B2, the binding result is on record as “binds”.

In the case of B3, the binding entry is “binds”.

On to B4, for which the binding result is recorded as “binds”.

For B5, the binding entry is listed as “binds”.

For the molecule B6, the binding result is on record as “binds”.

For B7, the binding result was “binds”.

For B8, the binding result is reported as “binds”.
